According to patent US20090324491A1:
No constants are given. Whether binding was seen depends on the method and setting. Some entries that bind do so weakly or less than the wild type.

T1: full-length human EREG (epiregulin) (human) (UniProt O14944)
T1 sequence: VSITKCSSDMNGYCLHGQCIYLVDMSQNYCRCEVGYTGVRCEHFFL


What was measured:
[1] = biological target: T1, full-length human EREG (epiregulin) (human); assay: flow cytometry on DLD1 human colon cancer cells (FIG. 4)
[2] = biological target: T1, full-length human EREG (epiregulin) (human); assay: immunohistological staining of clinical colon cancer tissue array, 50 µg/mL antibody (FIG. 20)
[3] = biological target: T1, full-length human EREG (epiregulin) (human); assay: flow cytometry on EREG_DG cells (FIG. 3)

binding [1]	binding [2]	binding [3]	Binder
binds	binds	binds	anti-EREG mouse monoclonal antibody EP27 (B3#18) (antibody, mouse IgG2b, V domains shown) VH: EDQLQQSGAELVKPGASVKLSCTASGFNIKDTYIQWVKLRPEQGLEWIGRIDPLNGNTKYVPKFQGKATITADTSSNTAYLQLSSLTSEDTAVYYCVRSGTLFDFWGQGTTLTVSS VL: DIQMTQSPSSLSASLGGKVTITCKASQDIHKYIAWYQHKPGKGPRLLIQYTSTLQPGIPSRFSGSGSGRDYSFSISNLEPEDIATYYCLQYDNLRTFGGGTKLEIK
binds	–	binds	anti-EREG mouse monoclonal antibody EP29 (B3#41) (antibody, mouse IgG1, V domains shown) VH: EVQLQQSGTVLARPGASVKMSCKASGYTFTSYWMHWVKQRPGQGLEWIGAIYPGNSDSYNQKFKGKAKLTAVTSTSTAYMELSSLTNEDSAVYYCTSVMAYWGQGTSVTVSS VL: DIQMTQSPSSLSASLGERVSLTCRASQDIGNSLNWLQQEPDGTIKRLIYATSNLDSGVSKRFSGSRSGSDYSLTISSLESEDFVDYYCLQYASSPWTFGGGTKLEIK
binds	–	binds	anti-EREG mouse monoclonal antibody EP20 (B2#30) (antibody, mouse IgG1, V domains shown) VH: QVQLQQSGAELVRPGVSVKISCKGSGYTFTVYSLHWVKQSHARSLEWIGVISTYYGDAIYNQKFKGKATMTVDKSSSTAYMELARLTSEDSAIYYCAREGNGNPLDYWGQGTTLTVSS VL: QIVLTQSPAIMSASLGERVTMTCTASSSVSSSYLHWYQQKPGSSPKLWIYSTSNLASGVPARFSGSGSGTSYSLTITNMEAEDSATYYCHQYHRSPLTFGAGTKLELK
